Taken from: PubChem BioAssay AID504808 (Drosophila RNAi Screening Center, 2011)
Purpose: 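Fly genes required to hold E2F transcription in check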 (primary screen). System: Drosophila S2 cells. Knock-down reagent: long dsRNA against Drosophila genes. Measured: 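Dual luciferase plate measurements; E2F-specific signal taken as firefly over Renilla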. Reading the numbers: E2F firefly: higher = more E2F reporter activity; Renilla normaliser: higher = more normaliser reporter signal. Call rule: 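Called active if the normalised E2F reporter went up by over 50%; the cutoff is arbitrary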.
The screen tested about 21,000 reagents; shown is a random part of those that have a named target and a result. Of all reagents, 18 (0.084%) are marked active. 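Raw counts without plate normalisation, one of two replicates; the ratio scores behind the calls were not deposited.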 A number with no mark means an inactive call. The numbers tell different reagents against one gene apart. Names joined by + are all predicted targets of the reagent. Reagent sequences are not shown. The record does not give: the amount of reagent, the time to read-out.

gene | reagent no. | E2F firefly, rep 1 | Renilla normaliser, rep 1
sle | 1 | 68382 | 3900
natalisin | 1 | 77169 | 4573
natalisin | 2 | 1.23e5 | 6009
twit | 1 | 71020 | 3110
Bace | 1 | 49581 | 3351
Gasz | 1 | 3815 | 127
CG30222 | 1 | 96405 | 4301
CG30222 | 2 | 1.03e5 | 4323
cher | 1 | 69802 | 4234
CG31473 | 1 | 1.37e5 | 7144
CG17646 | 1 | 92183 | 3934
CG8888 | 1 | 3153 | 180
CG8888 | 2 | 1.03e5 | 3972
CG13575 | 1 | 1.10e5 | 4300
cutlet | 1 | 1.51e5 | 4825
Gr98a | 1 | 49504 | 3622
sli | 1 | 1.51e5 | 5346
Alg7 | 1 | 95519 | 3337
Alg7 | 2 | 95949 | 4708
CG4390 | 1 | 79755 | 3835
CG15576 | 1 | 38255 | 3514
CG4511 | 1 | 1.35e5 | 7164
CG13151 | 1 | 1.01e5 | 4171
Bap55 | 1 | 90235 | 186
CG14573 | 1 | 1.58e5 | 7551
fzo | 1 | 1.04e5 | 6390
tacc | 1 | 76593 | 3383
tacc | 2 | 92920 | 3507
CG12914 | 1 | 1.31e5 | 5019
CG2267 | 1 | 1.30e5 | 6466
CG7945 | 1 | 70388 | 3376
CG13014 | 1 | 1.59e5 | 6553
CG6179 | 1 | 1.49e5 | 6001
CG2964 | 1 | 1.54e5 | 150
GstD8 | 1 | 1.43e5 | 6215
mxt | 1 | 96593 | 3814
AnxB9 | 1 | 59598 | 2871
Hecw | 1 | 1.37e5 | 5613
Hecw | 2 | 1.32e5 | 4971
CG16935 | 1 | 96146 | 4078
d-cup | 1 | 1.51e5 | 6614
CG5098 | 1 | 68105 | 3512
CG4983 | 1 | 74579 | 3293
coil | 1 | 2702 | 212
ATPsynGL | 1 | 1.37e5 | 4905
CG34178 + CG34177 | 1 | 1.47e5 | 4986
Dh44 | 1 | 65925 | 3431
Dh44 | 2 | 1.47e5 | 5918
htt | 1 | 1.23e5 | 6467
CG10877 | 1 | 1.51e5 | 7233
CG13488 | 1 | 1.11e5 | 4513
cyr | 1 | 1.12e5 | 5100
cyr | 2 | 1.07e5 | 4991
cyr | 3 | 1.04e5 | 5734
Nufip | 1 | 81428 | 3694
Polr3D | 1 | 75556 | 3960
CG8774 | 1 | 74639 | 3045
ATPsynO | 1 | 68442 | 3211
CG13895 | 1 | 1.17e5 | 4943
CG33309 | 1 | 1.28e5 | 6001
Polr3H | 1 | 1.30e5 | 7317
CG34243 (retired record) | 1 | 1.30e5 | 3925
CG34243 (retired record) | 2 | 1.41e5 | 3575
CG42615 | 1 | 1.36e5 | 5521
CG34459 | 1 | 1.56e5 | 5221

18 of these entries, reformatted:
CG34178 + CG34177 — E2F firefly, rep 1 = 1.47e5; Renilla normaliser, rep 1 = 4986
Dh44 #1 — E2F firefly, rep 1 = 65925; Renilla normaliser, rep 1 = 3431
Dh44 #2 — E2F firefly, rep 1 = 1.47e5; Renilla normaliser, rep 1 = 5918
htt — E2F firefly, rep 1 = 1.23e5; Renilla normaliser, rep 1 = 6467
CG10877 — E2F firefly, rep 1 = 1.51e5; Renilla normaliser, rep 1 = 7233
CG13488 — E2F firefly, rep 1 = 1.11e5; Renilla normaliser, rep 1 = 4513
cyr #1 — E2F firefly, rep 1 = 1.12e5; Renilla normaliser, rep 1 = 5100
cyr #2 — E2F firefly, rep 1 = 1.07e5; Renilla normaliser, rep 1 = 4991
cyr #3 — E2F firefly, rep 1 = 1.04e5; Renilla normaliser, rep 1 = 5734
Nufip — E2F firefly, rep 1 = 81428; Renilla normaliser, rep 1 = 3694
Polr3D — E2F firefly, rep 1 = 75556; Renilla normaliser, rep 1 = 3960
CG8774 — E2F firefly, rep 1 = 74639; Renilla normaliser, rep 1 = 3045
ATPsynO — E2F firefly, rep 1 = 68442; Renilla normaliser, rep 1 = 3211
CG13895 — E2F firefly, rep 1 = 1.17e5; Renilla normaliser, rep 1 = 4943
CG33309 — E2F firefly, rep 1 = 1.28e5; Renilla normaliser, rep 1 = 6001
Polr3H — E2F firefly, rep 1 = 1.30e5; Renilla normaliser, rep 1 = 7317
CG34243 (retired record) #1 — E2F firefly, rep 1 = 1.30e5; Renilla normaliser, rep 1 = 3925
CG34243 (retired record) #2 — E2F firefly, rep 1 = 1.41e5; Renilla normaliser, rep 1 = 3575

The listing continues:
gene | reagent no. | E2F firefly, rep 1 | Renilla normaliser, rep 1
CG5645 | 1 | 78683 | 3679
CG7208 | 1 | 1.50e5 | 6392
CG13738 | 1 | 1.17e5 | 7285
Cyp4d14 | 1 | 1.11e5 | 5895
CG32488 | 1 | 54787 | 4219
CG10802 | 1 | 1762 | 864
prom | 1 | 1.12e5 | 4560
CG15020 | 1 | 92765 | 3432
rgn | 1 | 88494 | 3994
SPoCk | 1 | 1.36e5 | 6742
SPoCk | 2 | 1.33e5 | 5569
SPoCk | 3 | 1.32e5 | 6539
SPoCk | 4 | 1.38e5 | 5975
gom | 1 | 1.05e5 | 4214
MESK2 | 1 | 1.01e5 | 4315
CG9932 | 1 | 89873 | 4047
CG11269 | 1 | 1.11e5 | 4349
disco | 1 | 1.48e5 | 5732
PGRP-LE | 1 | 8150 | 732
Vps60 | 1 | 1.59e5 | 6757
LSm7 | 1 | 92612 | 4443
RpL7 | 1 | 99190 | 174
CG15452 | 1 | 1.38e5 | 6138
CG13049 | 1 | 1.48e5 | 8040
CG10559 | 1 | 1.02e5 | 5115
Oatp58Da | 1 | 93042 | 3942
WASp | 1 | 1.06e5 | 5838
CG42671 | 1 | 50895 | 3311
CG42671 | 2 | 1.11e5 | 5565
CG15754 | 1 | 1.34e5 | 6539
CG5418 | 1 | 92837 | 4158
CG18581 | 1 | 1.60e5 | 8017
RpS6 | 1 | 6111 | 832
prim | 1 | 1.43e5 | 6196
TwdlZ | 1 | 84010 | 2708
RpL19 | 1 | 64064 | 4420
CG13170 | 1 | 89251 | 4394
CG17648 | 1 | 1.73e5 | 6297
Jon25Bii | 1 | 1.35e5 | 4634
Eno | 1 | 1.60e5 | 6194
CG17264 | 1 | 73456 | 3229
l(1)sc | 1 | 42586 | 3964
